For one substance, binding results are on record in paper doi:10.1101/2024.10.07.617013.

The target of this assay is Non-POU domain-containing octamer-binding protein (NONO) from Cricetulus griseus (Cricetulus griseus). Kind of assay: cryo-EM structure.

Results are given in words; binding and its absence hold for the method and conditions named. Some binding calls cover weakened binding; strength is not graded here.

As to “Non-POU domain-containing octamer-binding protein (NONO) from Cricetulus griseus (from UniProt A0A9J7K1U4 1-472)”, the binding entry is reported as “binds”.
